Test results: article PMC11264956
No constants are given. Whether binding was seen depends on the method and setting. In cells and extracts the contact can be indirect. Some binding calls cover weakened binding; strength is not graded here.

Amino acid sequences for entries named in this document (tags omitted).
UniProt P42336: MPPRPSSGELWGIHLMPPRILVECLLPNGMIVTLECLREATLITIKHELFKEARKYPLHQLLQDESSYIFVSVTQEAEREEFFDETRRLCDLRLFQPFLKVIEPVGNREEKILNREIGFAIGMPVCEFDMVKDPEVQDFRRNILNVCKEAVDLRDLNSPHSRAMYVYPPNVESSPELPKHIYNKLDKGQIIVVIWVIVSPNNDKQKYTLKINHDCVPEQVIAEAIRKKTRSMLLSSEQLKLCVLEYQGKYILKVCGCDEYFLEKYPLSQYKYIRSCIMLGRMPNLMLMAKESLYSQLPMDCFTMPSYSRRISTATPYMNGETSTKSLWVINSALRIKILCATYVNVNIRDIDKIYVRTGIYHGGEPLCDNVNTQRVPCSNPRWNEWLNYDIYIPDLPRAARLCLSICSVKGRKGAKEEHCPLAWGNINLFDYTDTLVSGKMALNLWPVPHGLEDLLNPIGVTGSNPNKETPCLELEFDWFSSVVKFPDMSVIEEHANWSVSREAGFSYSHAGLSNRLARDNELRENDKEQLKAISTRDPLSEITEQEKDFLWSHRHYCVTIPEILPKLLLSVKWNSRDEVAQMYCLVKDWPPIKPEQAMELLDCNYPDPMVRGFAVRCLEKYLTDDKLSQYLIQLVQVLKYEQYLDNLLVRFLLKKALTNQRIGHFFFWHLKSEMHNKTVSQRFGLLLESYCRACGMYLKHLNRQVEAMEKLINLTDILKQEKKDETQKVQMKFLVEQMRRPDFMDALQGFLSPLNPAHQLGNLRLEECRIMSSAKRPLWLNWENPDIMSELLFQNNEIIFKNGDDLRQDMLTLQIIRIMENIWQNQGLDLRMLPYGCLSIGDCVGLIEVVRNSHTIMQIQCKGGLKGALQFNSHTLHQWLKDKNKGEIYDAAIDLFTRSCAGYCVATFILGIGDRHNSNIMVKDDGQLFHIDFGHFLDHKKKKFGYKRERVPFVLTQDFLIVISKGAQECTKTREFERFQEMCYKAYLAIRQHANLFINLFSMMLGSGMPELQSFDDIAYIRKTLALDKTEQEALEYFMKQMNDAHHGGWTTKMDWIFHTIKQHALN
UniProt P27986: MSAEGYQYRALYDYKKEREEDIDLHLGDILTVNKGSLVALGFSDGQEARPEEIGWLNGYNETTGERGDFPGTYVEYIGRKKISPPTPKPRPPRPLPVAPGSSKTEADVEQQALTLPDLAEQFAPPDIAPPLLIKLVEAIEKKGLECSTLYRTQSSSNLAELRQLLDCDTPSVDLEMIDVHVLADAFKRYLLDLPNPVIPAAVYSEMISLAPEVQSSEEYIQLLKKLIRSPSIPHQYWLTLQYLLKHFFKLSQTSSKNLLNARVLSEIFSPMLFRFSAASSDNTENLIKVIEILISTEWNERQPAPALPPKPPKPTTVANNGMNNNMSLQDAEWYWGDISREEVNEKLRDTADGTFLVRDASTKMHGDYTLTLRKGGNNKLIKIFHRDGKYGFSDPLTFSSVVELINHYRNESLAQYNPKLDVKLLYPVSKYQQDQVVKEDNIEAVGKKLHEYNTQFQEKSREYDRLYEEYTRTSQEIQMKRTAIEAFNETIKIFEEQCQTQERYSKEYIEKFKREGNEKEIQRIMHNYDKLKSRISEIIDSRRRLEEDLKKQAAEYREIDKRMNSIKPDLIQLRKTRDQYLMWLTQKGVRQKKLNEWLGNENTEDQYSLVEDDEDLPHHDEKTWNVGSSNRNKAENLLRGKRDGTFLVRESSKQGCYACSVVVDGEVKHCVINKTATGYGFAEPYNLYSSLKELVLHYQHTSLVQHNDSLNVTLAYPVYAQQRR

Key:
[1] = biological target: T1, testes-specific protease 50 (TSP50), endogenous (human (endogenous in MCF7 and MDA-MB-231)) (UniProt Q9UI38); assay: co-IP; IP with anti-TSP50 antibody on protein A/G magnetic beads from MCF7 and MDA-MB-231 cells; Western blot with anti-AKT, anti-p85α or anti-p110α
T1 sequence: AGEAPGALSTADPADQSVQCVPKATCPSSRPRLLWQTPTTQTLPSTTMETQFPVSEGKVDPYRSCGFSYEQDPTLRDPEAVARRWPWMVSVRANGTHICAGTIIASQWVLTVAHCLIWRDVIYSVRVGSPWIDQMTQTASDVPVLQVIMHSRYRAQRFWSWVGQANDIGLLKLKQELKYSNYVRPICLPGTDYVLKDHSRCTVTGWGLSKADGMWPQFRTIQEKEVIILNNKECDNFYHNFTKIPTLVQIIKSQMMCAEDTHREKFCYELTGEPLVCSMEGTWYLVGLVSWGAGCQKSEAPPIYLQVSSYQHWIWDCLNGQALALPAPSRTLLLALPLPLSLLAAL

[2] = biological target: PI3K p110α catalytic subunit, endogenous (human (endogenous in MCF7 and MDA-MB-231)) (UniProt P42336); assay: co-IP; IP with anti-p110α antibody on protein A/G magnetic beads from MCF7 and MDA-MB-231 cells; Western blot with anti-TSP50 and anti-p85α; cells untreated, stably overexpressing NC or TSP50 (MCF7), transfected with shNC or shTSP50 (MDA-MB-231), or transfected with Flag-TSP50 wild type or D206A

PI3K p85α regulatory subunit, endogenous (from UniProt P27986 1-724)
binding [1]: no binding

B1: testes-specific protease 50 (TSP50), endogenous (protein, UniProt Q9UI38 40-385)
chain: AGEAPGALSTADPADQSVQCVPKATCPSSRPRLLWQTPTTQTLPSTTMETQFPVSEGKVDPYRSCGFSYEQDPTLRDPEAVARRWPWMVSVRANGTHICAGTIIASQWVLTVAHCLIWRDVIYSVRVGSPWIDQMTQTASDVPVLQVIMHSRYRAQRFWSWVGQANDIGLLKLKQELKYSNYVRPICLPGTDYVLKDHSRCTVTGWGLSKADGMWPQFRTIQEKEVIILNNKECDNFYHNFTKIPTLVQIIKSQMMCAEDTHREKFCYELTGEPLVCSMEGTWYLVGLVSWGAGCQKSEAPPIYLQVSSYQHWIWDCLNGQALALPAPSRTLLLALPLPLSLLAAL
binding [2]: binds

B2: TSP50, stably overexpressed by lentivirus (protein, UniProt Q9UI38 40-385)
chain: AGEAPGALSTADPADQSVQCVPKATCPSSRPRLLWQTPTTQTLPSTTMETQFPVSEGKVDPYRSCGFSYEQDPTLRDPEAVARRWPWMVSVRANGTHICAGTIIASQWVLTVAHCLIWRDVIYSVRVGSPWIDQMTQTASDVPVLQVIMHSRYRAQRFWSWVGQANDIGLLKLKQELKYSNYVRPICLPGTDYVLKDHSRCTVTGWGLSKADGMWPQFRTIQEKEVIILNNKECDNFYHNFTKIPTLVQIIKSQMMCAEDTHREKFCYELTGEPLVCSMEGTWYLVGLVSWGAGCQKSEAPPIYLQVSSYQHWIWDCLNGQALALPAPSRTLLLALPLPLSLLAAL
binding [2]: binds
